# From publication PMC4695161
# Chains of the proteins cited; added tags and fusions are not shown.
# UniProt P54368: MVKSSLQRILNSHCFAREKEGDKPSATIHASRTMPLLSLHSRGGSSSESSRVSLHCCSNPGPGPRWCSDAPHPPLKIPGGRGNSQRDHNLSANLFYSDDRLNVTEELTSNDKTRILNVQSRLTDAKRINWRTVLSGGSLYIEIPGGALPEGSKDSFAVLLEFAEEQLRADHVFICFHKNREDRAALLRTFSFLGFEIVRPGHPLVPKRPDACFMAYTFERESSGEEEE
# Results are given in words; binding and its absence hold for the method and conditions named. Some entries that bind do so weakly or less than the wild type.
# B1: human ornithine decarboxylase (ODC) (enzyme, UniProt P11926 1-461)
# chain: MNNFGNEEFDCHFLDEGFTAKDILDQKINEVSSSDDKDAFYVADLGDILKKHLRWLKALPRVTPFYAVKCNDSKAIVKTLAATGTGFDCASKTEIQLVQSLGVPPERIIYANPCKQVSQIKYAANNGVQMMTFDSEVELMKVARAHPKAKLVLRIATDDSKAVCRLSVKFGATLRTSRLLLERAKELNIDVVGVSFHVGSGCTDPETFVQAISDARCVFDMGAEVGFSMYLLDIGGGFPGSEDVKLKFEEITGVINPALDKYFPSDSGVRIIAEPGRYYVASAFTLAVNIIAKKIVLKEQTGSDDEDESSEQTFMYYVNDGVYGSFNCILYDHAHVKPLLQKRPKPDEKYYSSSIWGPTCDGLDRIVERCDLPEMHVGDWMLFENMGAYTVAAASTFNGFQRPTIYYVMSGPAWQLMQQFQNPDFPPEVEEQDASTLPVSCAWESGMKRHRAACASASINV
# Columns and labels:
# [1] = molecular target: human antizyme (AZ), wild type (human) (UniProt P54368); assay: AUC; sedimentation velocity; AZ pre-incubated 1 hour with ODC (or CCND1) at molar ratio 1, then the third protein (CCND1 or ODC) at varied concentration; 30 mM Tris-HCl pH 7.4, 50 mM NaCl, 20°C; both purified
# [2] = molecular target: human antizyme (AZ), wild type (human) (UniProt P54368); assay: AUC; sedimentation velocity, size distribution of AZ with ODC (or AZI) and CCND1, pre-incubated in either order or co-incubated; molar ratio of AZ to each protein 1; 30 mM Tris-HCl pH 7.4, 50 mM NaCl, 20°C; both purified
binder,measurement,setting,value
B1,binding,[1],binds
same,binding,[2],binds
